“And” between values parts separate entries of the source, which are not always exact repeats. Equal entries are not always repeated. Hit rate of the full screen: of about 2,000 compounds, about 45 (2%) were called active.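 How the source made its calls: active means inhibition above the screen-wide mean inhibition plus 3 SD (cut at about 44% in these data); inactive means the rest.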 This is one part of the list.
Biological target: Perilipin-1 (Homo sapiens) + 1-acylglycerol-3-phosphate O-acyltransferase ABHD5 (Homo sapiens) (UniProt O60240+Q8WTS1)
Experiment: blockers of ABHD5 binding to perilipin-1 – cell lysate, split luciferase complementation, luminescence, NIH validation set, pilot screen (AID 493027);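 further: 0% = DMSO wells with the 100% control not disclosed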
Details: split G. princeps luciferase complementation, 4 h; at 7.9 µM, hits give high values

Protein sequences, listed by entry. Tags and fused reporters are not part of them. Lines headed by an entry give the natural chain unless they say otherwise; changes in a name come on top.
UniProt O60240: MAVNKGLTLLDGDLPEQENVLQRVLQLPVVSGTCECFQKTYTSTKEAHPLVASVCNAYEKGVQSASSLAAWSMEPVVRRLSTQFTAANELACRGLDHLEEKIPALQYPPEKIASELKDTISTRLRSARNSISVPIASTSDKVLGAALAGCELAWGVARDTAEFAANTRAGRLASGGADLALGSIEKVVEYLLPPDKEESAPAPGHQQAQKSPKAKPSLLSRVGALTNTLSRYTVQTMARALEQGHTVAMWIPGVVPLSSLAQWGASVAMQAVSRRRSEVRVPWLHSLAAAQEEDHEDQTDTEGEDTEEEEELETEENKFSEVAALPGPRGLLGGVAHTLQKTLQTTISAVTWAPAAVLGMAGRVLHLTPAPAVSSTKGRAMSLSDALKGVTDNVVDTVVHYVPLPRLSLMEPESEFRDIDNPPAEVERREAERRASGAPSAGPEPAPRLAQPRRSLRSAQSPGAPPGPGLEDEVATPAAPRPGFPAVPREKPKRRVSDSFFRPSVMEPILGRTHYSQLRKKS
UniProt Q8WTS1: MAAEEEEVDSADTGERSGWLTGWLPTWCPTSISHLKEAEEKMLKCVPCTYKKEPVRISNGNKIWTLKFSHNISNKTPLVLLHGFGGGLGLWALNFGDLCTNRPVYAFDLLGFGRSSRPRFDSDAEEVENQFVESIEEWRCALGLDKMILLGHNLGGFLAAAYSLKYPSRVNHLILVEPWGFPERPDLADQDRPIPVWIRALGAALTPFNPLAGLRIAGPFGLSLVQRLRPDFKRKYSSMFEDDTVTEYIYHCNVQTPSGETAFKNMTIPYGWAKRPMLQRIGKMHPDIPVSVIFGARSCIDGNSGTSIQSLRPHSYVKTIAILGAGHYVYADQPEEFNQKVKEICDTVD

inhibition, active:
O=C1C=CC(=O)C(C2=C3C(=O)N(CCc4ccccc4)CC(=O)N3CCC2)=C1 68.9%, O=C(c1ccco1)N(CCC(c1ccccc1)c1ccco1)Cc1ccco1 (configuration not stated) 56.6%, COc1ccc(CN(CCC(c2ccccc2)c2ccc(OC(C)C)cc2)C(=O)CCl)cc1OC (configuration not stated) 64.4%

inhibition, inactive:
Cc1ccc2c(c1)C1(C(=O)N2)N2CCCC2C(C(=O)c2ccc3ccccc3c2)C12C(=O)Nc1ccccc12 (configuration not stated) -2.89%, CCOC(=O)[C@H](CCc1ccccc1)N[C@@H](C)C(=O)N1CCC[C@H]1C(=O)O -9.11%, O=C(Nc1ccc(N2CCOCC2)cc1)c1ccc(-c2ccccc2[N+](=O)[O-])o1 2.24%, C=C(C)c1nc2cc(OC)c(OC)cc2c(=O)o1 -7.25%, CC(C)(S)[C@@H](N)C(=O)O -2.59%, CC1=C/C(=N\N=C2\NC(=O)C(CC(=O)Nc3ccccc3F)S2)CC(C)(C)C1 (configuration not stated) -8.05%, COc1ccc(C(=O)Nc2ncc3c(n2)CC(C)CC3=O)cc1 (configuration not stated) -5.13%, CC(=O)Oc1ccc2c(=O)c(Oc3ccccc3[N+](=O)[O-])coc2c1 4.63%, CC(=O)O[C@H]1CSC[C@H]1NC(=O)c1ccccc1 -8.83%, O=C1CCCC(=O)C1=Cc1c[nH]c2ccccc12 -0.1%, COC(=O)c1cc(-c2c(C)oc3cc(OC)ccc3c2=O)c(C)o1 -1.1%, COc1ccc(-c2cc(=O)oc3c(C)c(O)c(CN(C)C)cc23)cc1 -2.72%, COC(=O)c1[nH]c2ccccc2c1NC(=O)CN1CCN(C/C=C/c2ccccc2)CC1 12.3%, C[C@H](NC(=O)NCCc1ccccc1)C(=O)O -7.43%, O=Cc1ccc(O)c(O)c1 1.17%, CN1CCCN=C1COC(=O)C(O)(c1ccccc1)C1CCCCC1 (configuration not stated) -2.75%, CC(C)(C)C(=O)NCCCNc1ccc([N+](=O)[O-])cc1 -4.54%, Cc1cc(C)cc(Nc2nc3c([nH]2)c(=O)n(C)c(=O)n3C)c1 -3.79%, COc1ccc(C(C)=O)c2c1OCCO2 -4.08%, C=CCC1(Cl)C(=O)C(Cl)=C(N2CCOCC2)C1(OC)OC (configuration not stated) -5.35%, CCC(=O)c1ccc(O)cc1 -3.72%, Cn1c(=S)n(C)c2ccccc21 -7.95%, CSCCC(NC(C)=O)C(=O)Oc1ccc2c3c(c(=O)oc2c1)CCCC3 (configuration not stated) 4.14%, CC(C)(Sc1cc(C(C)(C)C)c(O)c(C(C)(C)C)c1)Sc1cc(C(C)(C)C)c(O)c(C(C)(C)C)c1 -5.95%, CC(=O)O[C@H]1C[C@@]2(C)[C@@H](C[C@@H](O)[C@H]3[C@@]4(C)CC[C@@H](O)[C@@H](C)C4CC[C@@]32C)/C1=C(\CCC=C(C)C)C(=O)O (some centres not stated) -14.2%, Cc1oc(/C=N/NC(=O)CC2(C)OCCO2)cc1Br -2.12%, CCOc1ccc(N2C(=O)CC(NCCNc3ccc([N+](=O)[O-])cn3)C2=O)cc1 (configuration not stated) -2.7%, Clc1cc(-c2ccc(/C=N/n3cnnc3)o2)ccc1Br 13.8%, COc1ccc(-c2c(NC(=O)c3ccco3)n(C)c3ccccc3c2=O)cc1 -10.8%, OC(CCCN1CCC(O)(c2ccc(Cl)cc2)CC1)c1ccc(F)cc1 (configuration not stated) -5.52%, COc1ccccc1N1CCN(CC(O)COc2cccc3ccccc23)CC1 (configuration not stated) -9.03%, COc1ccc(NC(=S)N2CCN(CCN3C(=O)c4cccc5cccc(c45)C3=O)CC2)cc1 4.83%, CN1CCC(=C2c3ccccc3CC(=O)c3sccc32)CC1 -0.73%, COc1cc2c(cc1OC)-c1cc(OCc3ccccc3Cl)nc(=O)n1CC2 15.9%, C[C@]12C=CC(=O)C=C1CCC1C3CC[C@](O)(C(=O)CO)[C@@]3(C)CC3OC312 (some centres not stated) -8.39%, CCN1CCn2c3c(c4cc(Cl)ccc42)CCCC31 (configuration not stated) -2.44%, COc1cc(OC)c(C(=O)CCCN2CCCC2)c(OC)c1 -6.39%, CCOC(=O)NN1C(=O)c2ccccc2NC1c1ccc(OC)c(OC)c1 (configuration not stated) -3.24%, Cc1ccc2c(CC(=O)O)coc2c1 -5.04%, COc1ccccc1-c1c(C(F)(F)F)oc2cc(OC(=O)c3ccc([N+](=O)[O-])cc3)ccc2c1=O 19.7%, CCOc1ccc(OCCSc2nc3ccccc3[nH]2)cc1 -1.01%, CN1CCc2cccc3c2[C@H]1Cc1ccc(O)c(O)c1-3 -0.06%, CC(C)C1CC(CCNCc2ccc(N(C)C)cc2)(c2ccccc2)CCO1 (configuration not stated) -14.5%, CCC(NC(C)C)C(O)c1ccc(O)c(O)c1 (configuration not stated) 1.91%, CC1(C)CC(=O)c2cc(O)ccc2O1 -2.35%, c1cnc2c(c1)ccc1cccnc12 -52.2%, CCn1ccnc1CN(C)Cc1cn(-c2cccc(C)c2)nc1-c1cccc(F)c1 1.49%, COc1cc(C(=O)N/C(=C\c2cn(C)c3ccccc23)C(=O)NCCCO)cc(OC)c1OC -0.99%, Cc1ccc2nc(N=C(N)N)nc(C)c2c1 -2.93%, COc1cc(C2Nc3ccccc3C(=O)N2c2ccccc2)ccc1O (configuration not stated) 2.31%, Cc1ccc(-c2nn(-c3cccc(F)c3)cc2CN2CCN(c3ccccn3)CC2)o1 7.39%, Cc1cc(Cl)cc2c1NC(=O)[C@]21[C@@H]2C(=O)N(Cc3ccccc3)C(=O)[C@@H]2[C@@H]2CCCN21 5.08%, N/C(=N\OC(=O)CCCOc1ccc(Cl)cc1Cl)c1ccccn1 -6.95%, NC12CC3CC(CC(C3)C1)C2 -6.44%, CC(C)(C)c1csc(N/N=C/c2cccnc2)n1 -5.97%, Cc1nc2ccccc2n1CC(=O)NC1CCCC1 -15.2%, O=C(Nc1cccc(Cl)c1)N1CCN2C(=O)c3ccccc3C12c1ccccc1 (configuration not stated) 6.94%, O[C@@H](CNC[C@H](O)c1ccccc1)c1ccccc1 -1.94%, Cc1cccc(-n2c(Cc3ccccc3)n[nH]c2=S)c1 -9.48%, CN1CCN(C2=Nc3cc(Cl)ccc3Nc3ccccc32)CC1 -1.98%, CCn1c(/C=C/c2ccccc2)nc2ccccc2c1=O 7.31%, CCn1c2ccccc2c2cc(CC(N)=O)ccc21 1.29%, N#C/C(C(N)=O)=c1/ccc2c(c1)N1C3=C(CCCC3)CC3CCCCC31N=2 (configuration not stated) 6.71%, O=C(Nc1nc2ccccc2s1)c1ccc(F)cc1 -5.53%, Oc1ccc(Cl)cc1Cc1cc(Cl)ccc1O 0.63%, COc1ccc(OC(C)C(=O)Nc2ccccc2F)cc1 (configuration not stated) -1.13%, COc1ccc(/C=C/C(=O)NC(=S)NN2CCCCC2c2cccnc2)cc1 (configuration not stated) 3.85%, CC(C)COCC(CN(Cc1ccccc1)c1ccccc1)N1CCCC1 (configuration not stated) -7.7%, COc1cc2c(cc1OC)C(c1ccc(-c3cc(Cl)ccc3Cl)o1)=NCC2 6.19%, CC(C)OC(=O)C1C2C=CC3(CN(CC4CCCO4)C(=O)C13)O2 (configuration not stated) 10.8%, CC(CCCC(C)(C)O)NC(=O)c1ccc(OC2CCN(C(=O)C3CC3)CC2)cc1 (configuration not stated) -7.27%, CC(=O)c1cccc2c(O)c(C3=Nc4ccccc4C3=O)[nH]c12 13%, Cc1ccc(/C=N/Nc2nc(C(C)(C)C)cs2)o1 -12%, Cc1ccc2[nH]c3c(c2c1)CN(C(=O)CN1CCSCC1)CC3 14.8%, COc1cc(OC)cc(C(C)=O)c1 -7.11%, Cc1ccc(-n2ncc3c(Nc4cccc(C(=O)O)c4)ncnc32)cc1 9.15%, NCCOc1ccccc1OCCN -1.62%, CCCCOC(=O)c1ccc(N)cc1 4.95%, O=C(CS(=O)(=O)Cc1ccccc1)NCc1ccc2c(c1)OCO2 -12.5%, O=C(Nc1cccc(-c2nc3ncccc3o2)c1)c1ccccc1 2.01%, O=C(NCCCCCc1nc2ccccc2[nH]1)c1ccccc1Cl 2.81%, Cc1ccc2ncnc(NCCCCCC(=O)O)c2c1 3.36%, CCOc1ccc2ccccc2c1CNc1nnnn1C -8.53%, COc1ccc(OC(C)C(=O)Nc2ccc([N+](=O)[O-])cc2)cc1 (configuration not stated) -4.29%, Cc1ccsc1C1NC(=O)c2ccccc2N1 (configuration not stated) -1.07%, COc1ccc2oc(=O)c(C(=O)N3CCN(c4ccccc4)CC3)cc2c1 9.05%, CC(C)Oc1ccc(C(CC(=O)O)c2ccc(F)cc2)cc1 (configuration not stated) -5.29%, O=C(O)CCSCCC(=O)O -4.69%, O=C(c1cc2cc(Br)ccc2o1)N1CCCCC1 -9.79%, CO[C@@]1(NC(=O)Cc2cccs2)C(=O)N2C(C(=O)O)=C(COC(N)=O)CS[C@@H]21 6.03%, CC(C)OC(=O)C1C(=O)CC(C)(O)C(C(=O)OC(C)C)C1c1cccc(O)c1 (configuration not stated) -0.5%, COc1ccc(CCN2CNc3c(c(=O)n(C)c(=O)n3C)C2)cc1OC -10%, CC(CCc1ccccc1)NC(=O)/C=C/c1ccccc1 (configuration not stated) 2.76%, COc1cc(Cc2cnc(N)nc2N)cc(OC)c1OC -6.33% and -2.25%

Source: PubChem BioAssay AID493027 (The Scripps Research Institute Molecular Screening Center, 2011)
